These are yes or no findings as the source states them, for the method shown. In cells and extracts the contact can be indirect. These calls come from enrichment with a bait or labelling near it, and not all partners need be listed. Tags and fused reporters may be left off the sequences shown.
Biological target: T1, HA–SPOCD1 from the Spocd1^HA knock-in allele, E14.5 fetal testes (mouse (endogenous in fetal testis)) (UniProt B1ASB6)
T1 sequence: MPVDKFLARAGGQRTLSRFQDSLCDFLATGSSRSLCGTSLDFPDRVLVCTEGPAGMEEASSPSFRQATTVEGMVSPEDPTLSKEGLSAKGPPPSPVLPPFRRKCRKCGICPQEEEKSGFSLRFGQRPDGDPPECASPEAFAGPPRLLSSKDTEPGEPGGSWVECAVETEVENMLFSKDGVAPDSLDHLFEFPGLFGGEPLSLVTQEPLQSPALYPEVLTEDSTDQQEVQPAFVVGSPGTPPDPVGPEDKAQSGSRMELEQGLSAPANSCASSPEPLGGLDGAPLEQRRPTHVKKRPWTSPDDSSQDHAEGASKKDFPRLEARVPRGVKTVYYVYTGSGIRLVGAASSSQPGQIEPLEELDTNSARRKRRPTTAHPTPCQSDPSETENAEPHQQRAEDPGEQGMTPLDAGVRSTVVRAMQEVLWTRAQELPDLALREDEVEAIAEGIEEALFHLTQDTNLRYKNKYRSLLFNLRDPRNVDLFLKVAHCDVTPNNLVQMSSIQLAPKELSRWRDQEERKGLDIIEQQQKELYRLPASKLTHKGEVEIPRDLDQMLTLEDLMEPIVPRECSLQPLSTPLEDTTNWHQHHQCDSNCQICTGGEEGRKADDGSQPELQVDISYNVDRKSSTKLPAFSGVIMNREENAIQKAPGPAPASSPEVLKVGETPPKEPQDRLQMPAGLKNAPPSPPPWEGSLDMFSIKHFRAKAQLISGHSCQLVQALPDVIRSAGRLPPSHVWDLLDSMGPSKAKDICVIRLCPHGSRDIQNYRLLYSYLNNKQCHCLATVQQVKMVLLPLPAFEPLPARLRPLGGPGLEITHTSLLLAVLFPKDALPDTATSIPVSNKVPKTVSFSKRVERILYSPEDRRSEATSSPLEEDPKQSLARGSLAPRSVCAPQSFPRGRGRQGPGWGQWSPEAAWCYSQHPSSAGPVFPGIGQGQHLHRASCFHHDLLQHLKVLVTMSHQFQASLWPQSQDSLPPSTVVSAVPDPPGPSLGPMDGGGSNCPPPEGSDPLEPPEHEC
Test: affinity purification with mass spectrometry; anti-HA beads on E14.5 fetal testes of Spocd1^HA mice, 25 testes per replicate, wild-type testes as control, n = 3

Protein sequences, listed by entry. Tags and fused reporters are not part of them.
UniProt Q61142: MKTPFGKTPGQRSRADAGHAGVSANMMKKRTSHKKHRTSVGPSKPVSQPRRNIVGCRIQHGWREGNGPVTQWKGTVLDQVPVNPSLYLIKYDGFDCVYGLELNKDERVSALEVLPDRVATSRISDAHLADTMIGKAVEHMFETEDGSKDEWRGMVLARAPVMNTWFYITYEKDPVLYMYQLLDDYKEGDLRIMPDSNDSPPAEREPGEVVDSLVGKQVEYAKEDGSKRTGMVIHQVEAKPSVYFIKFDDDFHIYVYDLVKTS

binding: binds
Substance: SPIN1, endogenous in E14.5 fetal testes (from UniProt Q61142 1-262)
